Source: patent publication US6635250B2, “Use of certain metalloproteinase inhibitors for treating nerve disorders mediated by nucleus pulpsus” (A+ Science AB (publ), priority 1998, dated 2003)
At least one compound was matched to its structure with a doubt left.

How the values were obtained:
[1] = tested on: sacro-coccygeal cauda equina; assay: Series-2: nerve root conduction velocity three days after autologous nucleus pulposus application; assay type: in vivo; details: pig, versus no treatment, Student's t-test
nerve roots = details: cited from earlier work

Structure (SMILES) | block of nucleus pulposus-induced reduction in nerve conduction velocity [1] | block of nucleus pulposus-related effects (nerve roots)
C[C@H]1c2cccc(O)c2C(=O)C2=C(O)[C@]3(O)C(=O)C(C(N)=O)=C(O)[C@@H](N(C)C)[C@@H]3[C@@H](O)[C@@H]21 [Doxycycline, doxycycline] | completely blocked this reduction | 
C[C@H]1C[C@@H]2[C@H]([C@@H](O)C[C@@]3(C)[C@H]2CC[C@]3(O)C(=O)CO)[C@@]2(C)C=CC(=O)C=C12 [methylprednisolone] |  | blocked efficiently
